{
  "sequences": {"note": "Protein sequences, listed by entry. Tags and fused reporters are not part of them.", "UniProt Q9UKT9": "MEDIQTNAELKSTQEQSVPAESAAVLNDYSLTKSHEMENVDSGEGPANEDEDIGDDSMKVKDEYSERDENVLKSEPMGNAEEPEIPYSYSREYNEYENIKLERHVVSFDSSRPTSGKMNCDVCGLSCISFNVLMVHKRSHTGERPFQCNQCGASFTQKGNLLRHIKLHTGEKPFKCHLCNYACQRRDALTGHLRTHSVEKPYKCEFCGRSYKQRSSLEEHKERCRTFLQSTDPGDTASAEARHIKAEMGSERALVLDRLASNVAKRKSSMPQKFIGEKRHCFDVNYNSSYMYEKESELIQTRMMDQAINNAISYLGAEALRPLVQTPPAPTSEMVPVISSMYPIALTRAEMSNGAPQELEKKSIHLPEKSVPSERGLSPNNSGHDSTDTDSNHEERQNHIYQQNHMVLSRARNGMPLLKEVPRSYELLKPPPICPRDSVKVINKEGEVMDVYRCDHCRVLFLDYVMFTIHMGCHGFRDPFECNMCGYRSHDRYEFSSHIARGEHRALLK"},
  "source": "paper PMC6687534",
  "key": {"[1]": {"biological_target": "FLAG-tagged RUNX1 with deletion of the ID (UniProt Q01196)", "test": "co-IP; anti-FLAG gel on lysates of transfected HEK293T cells (in part stably expressing IKZF3 or IKZF1); NP-40 buffer, 4 °C overnight; immunoblot; in Fig. 4a-d cells treated with DMSO or increasing amounts (or 1 μM) of the RUNX inhibitor AI-10-104"}, "[2]": {"biological_target": "FLAG-tagged RUNX1 with deletion of the AD (UniProt Q01196)", "test": "co-IP; anti-FLAG gel on lysates of transfected HEK293T cells (in part stably expressing IKZF3 or IKZF1); NP-40 buffer, 4 °C overnight; immunoblot; in Fig. 4a-d cells treated with DMSO or increasing amounts (or 1 μM) of the RUNX inhibitor AI-10-104"}},
  "note": "These are yes or no findings as the source states them, for the method shown. In cells and extracts the contact can be indirect. Binding can be weak; no strength is given.",
  "data": [
    {"substance": "IKZF3 stably expressed in HEK293T cells (from UniProt Q9UKT9 1-509)", "values": [
      {"measurement": "binding", "setting": "[1]", "value": "binds"},
      {"measurement": "binding", "setting": "[2]", "value": "binds"}
    ]}
  ]
}
